Experimental data: EP2420830B1
No constants are given. Whether binding was seen depends on the method and setting. For part of these data: In cells and extracts the contact can be indirect.

Columns and labels:
[1] = biological target: T1, GGA3 (from HeLa cell lysate) (human (HeLa cells)) (UniProt Q9NZ52); assay: GST pull-down from HeLa cell lysate, immunoblot
T1 sequence (looked up): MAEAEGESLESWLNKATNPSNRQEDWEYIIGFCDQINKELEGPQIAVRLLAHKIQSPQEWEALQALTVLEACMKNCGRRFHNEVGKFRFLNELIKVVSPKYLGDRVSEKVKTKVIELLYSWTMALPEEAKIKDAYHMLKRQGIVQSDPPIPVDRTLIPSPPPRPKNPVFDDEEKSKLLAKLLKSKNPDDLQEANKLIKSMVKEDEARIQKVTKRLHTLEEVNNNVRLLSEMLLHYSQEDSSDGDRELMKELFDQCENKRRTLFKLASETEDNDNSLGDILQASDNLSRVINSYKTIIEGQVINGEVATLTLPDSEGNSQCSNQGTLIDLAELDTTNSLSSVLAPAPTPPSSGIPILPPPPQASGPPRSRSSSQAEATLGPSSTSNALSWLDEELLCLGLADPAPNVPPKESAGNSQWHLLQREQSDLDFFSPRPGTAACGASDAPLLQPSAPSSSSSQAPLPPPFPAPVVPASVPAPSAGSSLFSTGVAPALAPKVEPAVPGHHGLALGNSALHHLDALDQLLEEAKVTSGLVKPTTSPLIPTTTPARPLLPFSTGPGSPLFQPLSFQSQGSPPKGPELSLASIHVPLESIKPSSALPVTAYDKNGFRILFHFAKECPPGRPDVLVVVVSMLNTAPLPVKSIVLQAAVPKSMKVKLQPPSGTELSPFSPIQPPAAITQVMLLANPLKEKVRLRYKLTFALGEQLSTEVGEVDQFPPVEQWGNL

[2] = biological target: T1, GGA3 (from HeLa cell lysate) (human (HeLa cells)); assay: GST pull-down, immunoblot

| binding [1] | binding [2] | Substance |
| --- | --- | --- |
| no binding | – | GST fusion protein of the CIC-5 carboxy-terminal domain (CIC-5-CT, human aa 573-746) |
| no binding | – | GST fusion protein of the CIC-3 amino-terminal domain (CIC-3-NT, human aa 1-67) |
| – | no binding | GST fusion protein of the CIC-3 carboxy-terminal domain (CIC-3-CT, human aa 586-760) |
